The whole screen tested about 320,000 compounds, of which about 22,000 (6.9%) were called active. Inconclusive means that the source gave no clear call. Such entries were picked first, then a sample of the others. The call rests on the fitted dose curve; in most records, active means well fitted inhibition curve with a large enough effect; inconclusive means small, poorly fitted or top-dose-only effect, or another doubt; inactive means no such curve, though single readings can be large or run the other way. Where the call is inconclusive, the potency comes from a doubtful curve fit.
Test: Primary qHTS for delayed death inhibitors of the malarial parasite plastid, 96 hour incubation
Conditions: P. falciparum luciferase reporter growth; series mostly up to 28.7 µM; activity change, negative = inhibition: at the top concentration
How it was run: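 P. falciparum expressing integrated firefly luciferase grown in erythrocytes (2% hematocrit, 0.05% parasitemia final) with compounds for 96 hours at 37 C, 5% CO2. Growth inhibition read as loss of luminescence after adding luciferase detection reagent.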
On the % scale 0 is the no-effect control and ±100 the full control effect; potency means the concentration at half of the fitted maximal effect.

SMILES | Potency | activity change, negative = inhibition
Cc1cc(C)cc(N(CCC#N)C(=O)COC(=O)c2ccc(OCc3c(C)noc3C)cc2)c1 | active: 10.4 µM | –
CC(C)(C)c1cc2cccnc2n1Cc1cccc(Cl)c1 | inconclusive: 2.33 µM [inhibitor, single point] | –
COc1ccccc1N(CC(O)CN1CCC(C)CC1)S(=O)(=O)c1ccccc1 (centres undefined) | inconclusive: 10.4 µM [inhibitor, single point] | –
Cc1nn(CC(=O)N2CCN(S(=O)(=O)c3ccccc3)CC2)c(C)c1[N+](=O)[O-] | – | inactive: -8.33%
Cc1ccc(N=Nc2c(N)[nH]n3c(=O)cc(C)nc23)cc1 | inconclusive: 18.5 µM [inhibitor, single point] | –
Cc1ccccc1SCc1noc(C(=O)NC(C)C)c1C(=O)O | inconclusive: 4.15 µM [inhibitor, single point] | –
COc1ccc(OC)c(-n2c(-c3ccn[nH]3)n[nH]c2=S)c1 | inconclusive: 1.31 µM [inhibitor, full curve] | –
CCCCN1CC(=O)N2[C@H]3c4ccc(OC)cc4OC[C@@H]3[C@H](C(=O)OCC)[C@]2(C)C1=O | inconclusive: 16.5 µM [inhibitor, single point] | –
CCc1ccc(N=C2NC(=O)/C(=C/c3ccc(OCC(=O)O)c(OC)c3)S2)cc1 | inconclusive: 11.7 µM [inhibitor, partial curve, poor fit] | –
CCCN1C(=O)/C(=C\c2ccncc2)SC1=Nc1ccccc1 | inconclusive: 14.7 µM [inhibitor, single point] | –
CCOc1ccc2oc(C(=O)N(CC)CC(=O)Nc3c(F)cccc3F)c(C)c2c1 | inconclusive: 18.5 µM [inhibitor, single point] | –
c1ccc2c(c1)CCN(c1nc3ccccc3n3cnnc13)C2 | inconclusive: 10.4 µM [inhibitor, single point] | –
Nn1c(SCC(=O)Nc2ccc(S(N)(=O)=O)cc2)nnc1-c1ccco1 | active: 13.1 µM | –
Cc1ccc(/C(N)=N/OC(=O)c2ccc(F)cc2)cc1 | inconclusive: 16.5 µM [inhibitor, single point] | –
CC1=NN(c2nc(-c3ccc(C)cc3)cs2)C(=O)C1N=Nc1ccc2ccccc2c1 (centres undefined) | inconclusive: 7.38 µM [inhibitor, partial curve, poor fit] | –
O=C(CSc1nnc(CNC(=O)c2cccs2)o1)Nc1ccccc1C(F)(F)F | inconclusive: 10.4 µM [inhibitor, partial curve] | –
Cc1cc(C(=O)N2CCCC(CO)(Cc3ccc(F)cc3)C2)c(C)o1 (centres undefined) | inconclusive: 18.5 µM [inhibitor, single point] | –
O=C1/C(=C/c2ccncc2)CCC/C1=C\c1ccncc1 | – | inactive: 49.3%
Cc1cc(C)c2cc(C(=O)Nc3ccc(C)c(F)c3)[nH]c2c1 | inconclusive: 18.5 µM [inhibitor, single point] | –
Cc1cccc(Oc2nccc(C(F)(F)F)c2C(=O)Nc2ccc(F)cc2F)c1 | inconclusive: 11.7 µM [inhibitor, single point] | –
COCCCNCCCCOc1ccc(Br)cc1Cl | inconclusive: 6.57 µM [inhibitor, single point] | –
COC(=O)C1=C(c2ccc3ccccc3c2)C[C@@H]2CC[C@H]1N2C(=O)NCCCOC(C)C | inconclusive: 18.5 µM [inhibitor, partial curve, poor fit] | –

Reprinted at random: 3 records from the list.
SMILES | Potency | activity change, negative = inhibition
O=C1/C(=C/c2ccncc2)CCC/C1=C\c1ccncc1 | – | inactive: 49.3%
O=C(CSc1nnc(CNC(=O)c2cccs2)o1)Nc1ccccc1C(F)(F)F | inconclusive: 10.4 µM [inhibitor, partial curve] | –
Cc1cc(C)c2cc(C(=O)Nc3ccc(C)c(F)c3)[nH]c2c1 | inconclusive: 18.5 µM [inhibitor, single point] | –

Additional structures.

SMILES | Potency | activity change, negative = inhibition
Cc1ccc2nc3c(c(N)c2c1)CCN3c1ccccc1 | inconclusive: 14.7 µM [inhibitor, partial curve, poor fit] | –
CCC(=O)NCCc1nc2cc(NC(=O)Nc3ccccc3)ccc2n1C | – | inactive: 227%
Cc1ccccc1CC(=O)N(CCN(C)C)CC1CCCN(Cc2ccccc2F)C1 (centres undefined) | inconclusive: 9.28 µM [inhibitor, single point] | –
CCOC(=O)c1c(NC(=O)Cn2nc([N+](=O)[O-])c(Br)c2C)sc2c1CCC(C)C2 (centres undefined) | active: 0.0131 µM | –
Cc1ccc(SCCNC(=S)Nc2cc(C)ccc2C)cc1 | active: 8.28 µM | –
C=CCOc1ccccc1OC[C@H](O)CNC(C)C | inconclusive: 1.81 µM [inhibitor, full curve, poor fit] | –
O=C(Nc1cccnc1)c1cc(-c2cc(Cl)ccc2O)n[nH]1 | active: 0.738 µM | –
COc1ccc(C2c3[nH]c4ccccc4c3CCN2CCCn2cccn2)c(C)c1C (centres undefined) | active: 11.7 µM | –
CCn1c(C)nc2cc(C(=O)N/N=C/c3cccc(OC)c3O)ccc21 | inconclusive: 18.5 µM [inhibitor, partial curve, poor fit] | –
CC(NCC(=O)Nc1cc(S(=O)(=O)N2CCOCC2)ccc1N1CCOCC1)c1ccco1 (centres undefined) | active: 5.86 µM | –
CCOC(=O)Cc1cnc(N)s1 | inconclusive: 18.5 µM [inhibitor, single point] | –
Cn1cccc1CC(=O)N/N=C/C=C/c1ccco1 | – | inactive: -15.5%
COC(=O)CSc1nc(NC(C)(C)C)nc(N(C)C)n1 | inconclusive: 9.28 µM [inhibitor, partial curve] | –
O=C1NC(=S)N/C1=C\c1cccc([N+](=O)[O-])c1 | inconclusive: 20.8 µM [inhibitor, partial curve, poor fit] | –
Cc1ccc(S(=O)(=O)N(C)CCCC(=O)Nc2ccc(F)cc2)cc1 | – | inactive: -20.2%
C=CCOc1ccc(Br)cc1/C=C1/SC(=Nc2ccc(C(=O)O)cc2)NC1=O | inconclusive: 3.29 µM [inhibitor, partial curve] | –
CC(C)(C)NC(=O)C(c1ccco1)N(Cc1ccc2c(c1)OCO2)C(=O)c1snc(C(N)=O)c1N (centres undefined) | active: 9.28 µM | –
CCOC(=O)c1ccc(NC(=O)Cc2cccs2)cc1 | inconclusive: 11.7 µM [inhibitor, single point] | –
Cc1nc(-c2ccccc2)sc1C(=O)Nc1ccc(S(N)(=O)=O)cc1 | – | inactive: 3.13%
COc1cccc2cc(-c3csc(CCn4nc(C)cc4C)n3)c(=O)oc12 | inconclusive: 11.7 µM [inhibitor, single point] | –
N#Cc1ccc(Cn2c(-c3ccc(F)cc3)noc2=O)cc1 | – | inactive: -2.97%
CCc1cc(C(=O)c2ccc(OC)cc2)c(NC(=O)CCC(=O)O)s1 | inconclusive: 16.5 µM [inhibitor, partial curve, poor fit] | –

— PubChem BioAssay AID504834 (National Center for Advancing Translational Sciences (NCATS), 2011)
